The values that follow come from article PMC7819943, “Rice protein-binding microarrays: a tool to detect cis-acting elements near promoter regions in rice”.

Some of the results follow.

The experiment addresses T1, OsSMF1 (Oryza sativa, UniProt Q6ZLB0 1-436).
T1 sequence: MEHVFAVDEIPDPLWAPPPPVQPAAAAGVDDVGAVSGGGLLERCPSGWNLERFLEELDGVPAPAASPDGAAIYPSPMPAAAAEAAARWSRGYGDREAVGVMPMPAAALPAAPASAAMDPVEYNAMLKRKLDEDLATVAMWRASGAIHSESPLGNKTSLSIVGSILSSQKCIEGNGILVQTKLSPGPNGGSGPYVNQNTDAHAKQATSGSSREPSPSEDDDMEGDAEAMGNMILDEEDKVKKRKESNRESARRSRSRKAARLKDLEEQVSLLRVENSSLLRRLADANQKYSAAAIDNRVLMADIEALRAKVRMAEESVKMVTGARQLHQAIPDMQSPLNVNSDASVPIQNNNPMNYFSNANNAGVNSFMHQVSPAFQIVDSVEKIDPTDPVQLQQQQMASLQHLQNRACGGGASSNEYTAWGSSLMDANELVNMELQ
Briefly: protein-binding microarray (RPBM); PBS, 2% BSA, 51.3 ng/ul salmon testes DNA, 50 uM zinc acetate, 200 nM TF, 25 C, 1 h; high values mean tight binding. To be noted: protein: recombinant; tags: N-terminal polyhistidine and DsRed monomer fusion (pET32a); chain copies: 2; label: CyDye5-dUTP incorporated in the synthesized complementary strand; 3' TTTTT single-stranded linker to array surface; dsDNA, one strand shown. In short, it runs like this: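 An Axon 4000B scanner gave the binding signal as per-feature fluorescence intensity in arbitrary units. This followed washing of a custom Agilent array that had been incubated for 1 h at 25 °C with 200 nM protein in PBS, 2% BSA, salmon testes DNA and 50 µM zinc acetate. The proteins were transcription factors fused at the N-terminus to polyhistidine and DsRed, expressed in E. coli BL21-CodonPlus and purified on Ni–NTA.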
In the case of “ACTTCCATTTGTTCCACGTCACCGCCCTCCCCAATATCTACGGAGTCACCTAGTGCAG”, the binding signal was 16000 fluorescence intensity (a.u.).

Consider “CACACATGAATACACAATCATTAACACAAACGGCGGCGACCGGAGTCACCTAGTGCAG”, for which the binding signal was 26200 fluorescence intensity (a.u.).

Regarding “GTGGGCTTAGACGGCCCAGTCATGACCCTTTCATTTCGTGCGGAGTCACCTAGTGCAG”, the binding signal is 3440 fluorescence intensity (a.u.).

As for “TGGCGTTGATGTGGCATGCCACACAGATATGATGTGGCATCGGAGTCACCTAGTGCAG”, the binding signal was 11000 fluorescence intensity (a.u.).

As for “TTTTCTGCCTCTCATGTCATCATCAACTCGCCCATAACTTCGGAGTCACCTAGTGCAG”, the binding signal was 18500 fluorescence intensity (a.u.).

In the case of “GCAAAATCCACACGATACCCTCGTGTCGTGCCTACCTTGGCGGAGTCACCTAGTGCAG”, the binding signal is 4150 fluorescence intensity (a.u.).

For the sequence “TAGCATTAACACATTCCGTTGGCAGTTGGCGGCTGTACGGCGGAGTCACCTAGTGCAG”, the binding signal was 16700 fluorescence intensity (a.u.).

For “CTCCCCTTCTCCCGTCGACGCGGGTGACGACCTCTCCCCTCGGAGTCACCTAGTGCAG”, the binding signal is 5390 fluorescence intensity (a.u.).

With “ATGACCTTAATTTACCTATATAAACCCAGGCCACGTCAGCCGGAGTCACCTAGTGCAG”, the binding signal was 36400 fluorescence intensity (a.u.).

As to “TAGGGAATATGGGCAACCGATGACTTGGAGGAGGCAGCTTCGGAGTCACCTAGTGCAG”, the binding signal was 29800 fluorescence intensity (a.u.).

With “GGATGAAGGAAAGAGAAAATGACAATTTGGTCCCAAACATCGGAGTCACCTAGTGCAG”, the binding signal was 26000 fluorescence intensity (a.u.).

As to “GCTGCTTGGCCCAAAACCAAACGCCACGTGCCCACGGCCTCGGAGTCACCTAGTGCAG”, the binding signal is 4490 fluorescence intensity (a.u.).

As to “GCGATCATGTTGTGCTAATCGGTATAATTAGTGACCCTAACGGAGTCACCTAGTGCAG”, the binding signal was 34500 fluorescence intensity (a.u.).

For “ATTACTCGATTGGTTAAGAAAGCGAAGAGCTTTGCCCCAACGGAGTCACCTAGTGCAG”, the binding signal was 15600 fluorescence intensity (a.u.).

As to “AAAGGACGGACAGTTTCCTGCGCAAATTCCACGTTCCACCCGGAGTCACCTAGTGCAG”, the binding signal was 3460 fluorescence intensity (a.u.).

Consider “CTGCAGCACTGTGACCCGATTCGATTCCTTTGTTCTCCCCCGGAGTCACCTAGTGCAG”, for which the binding signal was 5010 fluorescence intensity (a.u.).

Take “GAATCGATATGGCGGTGGCGCGGTGCTAGGGTTCTCCTCGCGGAGTCACCTAGTGCAG”: the binding signal is 13300 fluorescence intensity (a.u.).

In the case of “GCACCTCGTTAGGCTTCATGGTCATGGCTCGTCGCTGACGCGGAGTCACCTAGTGCAG”, the binding signal is 6120 fluorescence intensity (a.u.).

“CAATTTGGCAGCCGTCAAACACTGATGTGTCACACACATGCGGAGTCACCTAGTGCAG”: the binding signal is 5240 fluorescence intensity (a.u.).

In the case of “AAGGTGAAATGCTGGTTGTGATGTCATCTGCAGATTCAGCCGGAGTCACCTAGTGCAG”, the binding signal is 6530 fluorescence intensity (a.u.).

Regarding “GCTGCCAACCCGAGTCACGAGACCTCATCTCTCCTCAATCCGGAGTCACCTAGTGCAG”, the binding signal was 3220 fluorescence intensity (a.u.).

Regarding “TCTTGACATCCGGAATCATCACGCTCTTCCCAATCGAGGTCGGAGTCACCTAGTGCAG”, the binding signal was 3680 fluorescence intensity (a.u.).

With “TGGCGCCTCTCACCGCCACGTCGCCGCCGGCGAGGTGAAACGGAGTCACCTAGTGCAG”, the binding signal is 20800 fluorescence intensity (a.u.).

Take “CACCGACCGCCGTCGCACGTTCGTCTCCACGTTCGTCGTTCGGAGTCACCTAGTGCAG”: the binding signal was 3380 fluorescence intensity (a.u.).

For “AAACATTTTGAGCCAAGTCCATGCATCTCTCTTGGTCTTGCGGAGTCACCTAGTGCAG”, the binding signal was 4500 fluorescence intensity (a.u.).

Turning to “TGCAACACGGCTTTGATGAGATCACGTGTGAGCAAGGATTCGGAGTCACCTAGTGCAG”, the binding signal was 3380 fluorescence intensity (a.u.).

With “CGACGCCTACGCCTACGCGGTCGGAAGCTTCCGGTCGCCGCGGAGTCACCTAGTGCAG”, the binding signal is 23500 fluorescence intensity (a.u.).

Turning to “TTGCCTGCATTGCTTCTGCATGATGCGTCTGTATTTCAAGCGGAGTCACCTAGTGCAG”, the binding signal was 30900 fluorescence intensity (a.u.).

“TACCTACACTATTGCTAGGCAGAAATTTCTTTTCACCCATCGGAGTCACCTAGTGCAG”: the binding signal is 29200 fluorescence intensity (a.u.).

With “TCGACCGTTGCCACCTCGCAGCGTAGTCAGAGACCCACCCCGGAGTCACCTAGTGCAG”, the binding signal is 5160 fluorescence intensity (a.u.).

Consider “ACGACGCCATTCCGGGAAATGTCATTGTGGCGAAACCCACCGGAGTCACCTAGTGCAG”, for which the binding signal was 3400 fluorescence intensity (a.u.).

For “TCTAGCTCTGACTCAAATCGTACTGCATTATCACCAGCTCCGGAGTCACCTAGTGCAG”, the binding signal was 5150 fluorescence intensity (a.u.).

For the sequence “GATCTGGAGTCCGGCGAGGACTCCTCCGACTCTGTCACCTCGGAGTCACCTAGTGCAG”, the binding signal is 3370 fluorescence intensity (a.u.).

“ACGCTGACTCTGTCAATATCAACATCTTCAGTTACTATTCCGGAGTCACCTAGTGCAG”: the binding signal was 5460 fluorescence intensity (a.u.).

“TTTGGAGGACGGTTTCACGGACGTGAGTGTTGACATGGAGCGGAGTCACCTAGTGCAG”: the binding signal is 3320 fluorescence intensity (a.u.).

With “TAACCAAGTGTGACACGTGAGCCATGAACTTACGATCGAACGGAGTCACCTAGTGCAG”, the binding signal is 3270 fluorescence intensity (a.u.).

With “CGACGAGAAACTCAAGGTTGTCTCTGTCATTGGAGTTGGACGGAGTCACCTAGTGCAG”, the binding signal was 3210 fluorescence intensity (a.u.).

For the sequence “TTTTCTATTTGGTTGTAATAGCATGATGTGTACTAAGCATCGGAGTCACCTAGTGCAG”, the binding signal was 3690 fluorescence intensity (a.u.).

“GTCACAGATTCGGTATGAATCTTTGCCACGTTCATGGATGCGGAGTCACCTAGTGCAG”: the binding signal was 5750 fluorescence intensity (a.u.).

On to “AGAAGTGTGGAATGCATGGTTTAGCCTTGTGAGCCCCACACGGAGTCACCTAGTGCAG”, for which the binding signal was 3370 fluorescence intensity (a.u.).

For the sequence “TTAATACCTGGTCTCACCTGTCATACACACATTACGTCTTCGGAGTCACCTAGTGCAG”, the binding signal was 3570 fluorescence intensity (a.u.).

For the sequence “ATCAAAATGATGTATCGTACAGTCATTGCGTCAATCGGTACGGAGTCACCTAGTGCAG”, the binding signal was 6100 fluorescence intensity (a.u.).
